PubChem BioAssay AID504774 – Drosophila RNAi Screening Center | 2011
The screen tested about 23,000 reagents; shown is a random part of those that have a named target and a result. 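Values are quantile-normalised luminescence on an arbitrary scale; higher means more cells surviving MMS.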 Further read-outs or replicates are left out here.

Assay: 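Genes required for cells to withstand methyl methanesulphonate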 (primary screen)
Cell system: Drosophila Kc167 cells
Reagents: long dsRNA against Drosophila genes, about 0.25 µg dsRNA per well
Duration: about 6 days: 3 days knock-down, then 3 days with or without MMS
Treatment: methyl methanesulphonate 0.004% (w/v) for 3 days after knock-down
Detection: 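Viability in wells given MMS, read as ATP luminescence, normalised by quantiles plate by plate and averaged across replicates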
Direction: mean viability with MMS: higher = more surviving cells after MMS

mean viability with MMS, by gene and reagent
CG14411: DRSC19597 3.78e6
HDAC11 (Histone deacetylase 11): DRSC14280 3.48e6
CG43658: DRSC20111 3.58e6
CG32751: DRSC21770 3.35e6
CG16734: DRSC15143 3.24e6
CG32109: DRSC09816 3.67e6
Kap-alpha1 (karyopherin alpha1): DRSC11356 3.52e6
ais (aramis): DRSC10523 3.59e6
CG33757: DRSC05159 3.49e6
Ibf2 (Insulator binding factor 2): DRSC16551 3.29e6
Naam (Nicotinamide amidase): DRSC16252 3.65e6
TotE (Turandot E): DRSC21355 3.57e6
lig (lingerer): DRSC07246 3.34e6; DRSC07247 3.48e6
CG8944: DRSC20128 3.49e6; DRSC21342 3.83e6
CG10979: DRSC12153 3.63e6
CG6484: DRSC06991 3.60e6
STUB1 (STIP1 homology and U-box containing protein 1): DRSC03282 3.57e6
Gpdh1 (Glycerol-3-phosphate dehydrogenase 1): DRSC03336 3.66e6; DRSC21666 3.32e6
Khc-73 (Kinesin heavy chain 73): DRSC07449 3.72e6
Kul (Kuzbanian-like): DRSC15404 3.45e6
CG15126: DRSC06548 3.57e6
CG3626: DRSC18318 3.40e6
CG17440: DRSC18126 3.60e6
dpp (decapentaplegic): DRSC00118 3.63e6; DRSC00121 3.63e6; DRSC00813 3.50e6
Dhc64C (Dynein heavy chain 64C): DRSC08656 3.42e6
Scamp: DRSC20286 3.46e6
CG14205: DRSC19560 3.61e6
Nox (NADPH oxidase): DRSC06596 3.59e6; DRSC06857 3.53e6
Prm (Paramyosin): DRSC08941 3.47e6; DRSC08942 3.41e6; DRSC11255 3.61e6
Diap1 (Death-associated inhibitor of apoptosis 1): DRSC11404 2.53e6
CG15922: DRSC15128 3.74e6
p38c (p38c MAP kinase): DRSC22939 3.40e6
RacGAP84C (Rac GTPase activating protein at 84C): DRSC12630 3.50e6
CG15577: DRSC18065 3.70e6
Sh (Shaker): DRSC19214 2.91e6; DRSC19220 3.61e6; DRSC19785 3.53e6; DRSC20055 3.56e6; DRSC22567 3.80e6
Oatp33Eb (Organic anion transporting polypeptide 33Eb): DRSC02955 3.65e6
CG45263: DRSC12682 3.51e6; DRSC14360 3.55e6; DRSC14361 3.73e6; DRSC14363 3.48e6
CG1750: DRSC15240 3.38e6
CG9663: DRSC00724 3.64e6
GM130 (Golgi matrix protein 130 kD): DRSC04617 3.73e6
Ugt35A1 (UDP-glycosyltransferase family 35 member A1): DRSC16892 3.48e6
CG7970: DRSC08605 3.58e6
mRpS31 (mitochondrial ribosomal protein S31): DRSC10556 3.50e6
CG34175: DRSC00424 3.67e6
CG14760: DRSC06495 3.62e6
CG10353: DRSC19354 3.57e6
CG1504: DRSC20513 3.50e6
BaraB (Baramicin B): DRSC06420 3.60e6
CG9485: DRSC04557 3.46e6
Mtpalpha (Mitochondrial trifunctional protein alpha subunit): DRSC01994 3.63e6
CG14785: DRSC18604 3.39e6
olf186-M: DRSC07657 3.46e6
Tektin-C (Tektin C): DRSC09741 3.22e6
l(3)S110416 (retired record): DRSC17094 3.72e6
CG1075 (retired record): DRSC12144 3.65e6
CG34029: DRSC03909 3.52e6
CG33640: DRSC01324 3.47e6
Poc1 (Proteome of centrioles 1): DRSC09713 3.45e6
salto: DRSC06291 3.61e6
Ns1 (Nucleostemin 1): DRSC15529 3.47e6
VhaPPA1-2 (Vacuolar H[+] ATPase PPA1 subunit 2): DRSC16176 3.57e6
CG13124: DRSC02220 3.70e6
gammaSnap2 (gamma Soluble NSF attachment protein 2): DRSC15992 3.57e6
Frq2 (Frequenin 2): DRSC20245 3.50e6
pio (piopio): DRSC04386 3.52e6
CG2652: DRSC18501 3.66e6; DRSC22576 3.66e6
CG3437: DRSC10366 3.46e6
CG32652 (retired record): DRSC18942 3.53e6; DRSC22662 3.53e6
CG15044: DRSC19620 3.37e6; DRSC21385 3.42e6

Part of the list above, set out differently.
CG14760 [DRSC06495]
- mean viability with MMS: 3.62e6

CG10353 [DRSC19354]
- mean viability with MMS: 3.57e6

CG1504 [DRSC20513]
- mean viability with MMS: 3.50e6

BaraB (Baramicin B) [DRSC06420]
- mean viability with MMS: 3.60e6
